Laboratory results reported in PubChem BioAssay AID602313 (National Center for Advancing Translational Sciences (NCATS), 2012).
Out of some 390,000 compounds screened, about 760 (0.19%) were called active. The inconclusive results got no clear call from the source; some entries with a clear call stand among them for comparison. Calls follow the shape of the dose curve; as a rule, active = well fitted inhibition curve with a large enough effect; inconclusive = small, poorly fitted or top-dose-only effect; inactive = flat fitted curve, though single readings scatter. Potencies beside an inconclusive call are fits to weak or partial responses and may not hold up.

Assay: qHTS for Inhibitors of Vif-A3F Interactions: qHTS; also: nearly all actives have a fitted effect of over 65% in size; as to activity, negative = active: % of control where 0% means no effect
Settings: HeLa A3F-eYFP + Vif (tagged APOBEC3F with the HIV-1 protein that degrades it), YFP fluorescence increase; series mostly up to 46.1 µM; activity, negative = active: at the top concentration
How it was run: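 HeLa cells stably expressing Vif plus C-terminally eYFP-tagged A3F were seeded, incubated overnight at 37 deg C, dosed with compound, incubated overnight again at 37 deg C. Yellow fluorescence (Ex 488/Em 500-530) reported blocked Vif-mediated A3F-eYFP degradation.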
Potency is read from the fitted curve at half-maximal effect.

SMILES	activity, negative = active	Potency
Cc1ccc(S(=O)(=O)N2c3ccccc3NC(=O)CC2C)cc1 (stereo not drawn)	inactive: -0.173%	–
CCc1ccc(-c2cc3c(N4CCN(c5ccccc5)CC4)nccn3n2)cc1	–	inconclusive: 3.55 µM [inhibitor, single point]
CC1c2ccsc2CCN1S(=O)(=O)c1cccs1 (stereo not drawn)	inactive: -3.25%	–
CCOC(=O)Cc1csc(-n2sc3ccccc3c2=O)n1	inactive: -10.8%	–
COc1cc(/C=N/NC(N)=S)cc(Br)c1OCc1ccccc1F	–	inconclusive: 2.82 µM [inhibitor, single point]
C#CCOc1c(Br)cc(/C=C2/C(=O)ON=C2C)cc1OC	inactive: -5.28%	–
O=C(N[C@@H]1C/C=C\C[C@H](CC(=O)N(CCO)Cc2ccccc2)C(=O)NC[C@@H](c2ccccc2)OC1=O)OCC1c2ccccc2-c2ccccc21	–	inconclusive: 35.5 µM [inhibitor, single point]
Cc1ccc(-c2csc(Nc3ccccn3)n2)cc1	–	inconclusive: 6.31 µM [inhibitor, single point]
Cc1ccc(NC(=O)CSc2[nH]c(=O)ncc2C)cc1	–	inconclusive: 22.4 µM [inhibitor, single point]
O=C(Nc1nnc(SCc2ccc(F)cc2)s1)c1ccccn1	–	inconclusive: 0.562 µM [inhibitor, partial curve, poor fit]
COc1ccc(/C=C/C(=O)NC(=S)Nc2ccc(S(=O)(=O)Nc3cc(OC)ncn3)cc2)cc1	inactive: 1.07%	–
Cc1ccc(-c2nc3sc(C#N)c(N)n3c(=O)c2C#N)cc1	–	active: 6.31 µM
Cc1c(C(=O)OC/C(O)=C(\C#N)c2nc3ccccc3[nH]2)oc2ccc(Br)cc12	–	inconclusive: 3.55 µM [inhibitor, single point]
Cc1noc(/C=C/Nc2ccc(F)cc2F)c1[N+](=O)[O-]	–	inconclusive: 35.5 µM [inhibitor, single point]
COc1ccc(-n2c(SCCC#N)nnc2-c2cc(Cl)ccc2OC)cc1Cl	inactive: -0.875%	–
C[C@H]1CN([C@@H](C)CO)C(=O)Cc2cc(NC(=O)CCC(F)(F)F)ccc2O[C@H]1CN(C)S(=O)(=O)c1ccc(Cl)cc1	inactive: -2.77%	–
Cc1cc(C)cc(NC(=O)c2sc3nc(-c4cc5ccccc5oc4=O)[nH]c(=O)c3c2C)c1	–	inconclusive: 22.4 µM [inhibitor, single point]
O=C(NCCCn1ccnc1)c1nn2c(C(F)(F)F)cc(-c3ccc(Br)cc3)nc2c1Cl	–	inconclusive: 3.16 µM [inhibitor, partial curve, poor fit]
COc1ccc(CCNC(=O)CCc2c(C)nc3c(c(C)nn3-c3ccccc3)c2C)c(OC)c1	inactive: -1.42%	–
O=C(c1cc(Br)ccc1Cl)N1CCN(c2ncccn2)CC1	inactive: 1.63%	–
O=C(Nc1nc(-c2ccccn2)cs1)C1CCCC1	–	active: 7.08 µM
C/C(=N\Nc1nc2ccccc2[nH]1)c1ccc(C)o1	inactive: 8.59%	–
Cc1cnc(NC(=O)C2CC(=O)N(c3cccc(Cl)c3)C2)s1 (stereo not drawn)	–	inconclusive: 3.16 µM [inhibitor, single point]
COc1cc(OC)c(OC)cc1/C=C1\CC(C)C/C(=C\c2cc(OC)c(OC)cc2OC)C1=O (stereo not drawn)	–	active: 22.4 µM
O=C(CSc1nnc(-c2cccc(S(=O)(=O)N3CCCC3)c2)n1-c1ccccc1)Nc1ccc(C(=O)O)cc1	inactive: -13.7%	–

Reprinted from above, two compounds:
SMILES	activity, negative = active	Potency
C/C(=N\Nc1nc2ccccc2[nH]1)c1ccc(C)o1	inactive: 8.59%	–
Cc1cnc(NC(=O)C2CC(=O)N(c3cccc(Cl)c3)C2)s1 (stereo not drawn)	–	inconclusive: 3.16 µM [inhibitor, single point]

In the list so far, these contain a CF3 group:
SMILES	activity, negative = active	Potency
C[C@H]1CN([C@@H](C)CO)C(=O)Cc2cc(NC(=O)CCC(F)(F)F)ccc2O[C@H]1CN(C)S(=O)(=O)c1ccc(Cl)cc1	inactive: -2.77%	–
O=C(NCCCn1ccnc1)c1nn2c(C(F)(F)F)cc(-c3ccc(Br)cc3)nc2c1Cl	–	inconclusive: 3.16 µM [inhibitor, partial curve, poor fit]

Continuation:

SMILES	activity, negative = active	Potency
CCOC(=O)/C=c1\s/c(=C\c2ccc(C(=O)OC)cc2)c(=O)n1CC(=O)Nc1ccccc1	–	inconclusive: 35.5 µM [inhibitor, single point]
CCOc1cc(/C=C2\SC(=Nc3ccc(CC)cc3)NC2=O)ccc1OCC(=O)O	–	inconclusive: 4.47 µM [inhibitor, full curve, poor fit]
OCC1(Cc2ccccc2C(F)(F)F)CCN(Cc2ccccc2)CC1	inactive: -2.32%	–
CCn1c(C)nc2cc(S(N)(=O)=O)ccc21	–	inconclusive: 20 µM [inhibitor, partial curve, poor fit]
Cc1c(Cl)cccc1NC(=O)Cn1nc(C)c2sc3ccccc3c2c1=O	–	inconclusive: 35.5 µM [inhibitor, single point]
COc1ccc(Cn2c(O)c(C=Nc3ccc(O)cc3)c3ccccc3c2=O)cc1	–	inconclusive: 25.1 µM [inhibitor, single point]
CC(=O)Nc1ccc(-n2nnnc2SCC(=O)NC2CCCC2)cc1	–	inconclusive: 35.5 µM [inhibitor, single point]
CCOC(=O)c1cn2ccc(C)cc2n1	inactive: -2.02%	–
COc1ccc(NC(=O)N(C)C[C@@H]2OCc3cnnn3CCCC(=O)N([C@H](C)CO)C[C@@H]2C)c(OC)c1	inactive: 0.426%	–
COc1cc(OC)cc(C(=O)Nc2ccccc2-c2nc3ccccc3s2)c1	inactive: 0.142%	–
COc1ccc(/C(O)=C2\C(=O)C(=O)N(CCN(C)C)C2c2cccc(OC)c2OC)cc1 (stereo not drawn)	–	inconclusive: 35.5 µM [inhibitor, single point]
O=C(N/N=C/c1c(O)n(-c2ccc(Cl)cn2)c(=O)c2ccccc12)c1ccncc1	–	active: 22.4 µM
C#CCn1c(=NC(=O)c2ccc(S(=O)(=O)N3CCc4ccccc4C3)cc2)sc2cc(S(N)(=O)=O)ccc21	–	inconclusive: 3.55 µM [inhibitor, partial curve, poor fit]
CN(C)c1ccc(C(=O)/C=C/c2ccccc2)cc1	–	inconclusive: 25.1 µM [inhibitor, single point]
CCc1ccc(NC(=O)CSc2nnnn2C)cc1	–	inconclusive: 15.8 µM [inhibitor, partial curve, poor fit]
O=C(NCc1ccco1)c1ccc(Cl)c(S(=O)(=O)Nc2ccccc2)c1	–	inconclusive: 28.2 µM [inhibitor, single point]
O=C(O)CC(NCc1ccco1)C(=O)OCCCl (stereo not drawn)	inactive: -9.55%	–
COc1cc(/C=C2/SC(=S)N(CCC(=O)Nc3ccccc3)C2=O)cc(OC)c1OC	–	active: 11.2 µM
CCOC(=O)C1CCCN(C(=S)NC(=O)/C=C/c2ccc(F)cc2)C1 (stereo not drawn)	–	inconclusive: 35.5 µM [inhibitor, single point]
CCOC(=O)c1ccc(S(=O)(=O)N2CCN(c3ccccn3)CC2)cc1	–	inconclusive: 3.16 µM [inhibitor, partial curve, poor fit]
O=[N+]([O-])c1ccc(/C=N/NC2=NS(=O)(=O)c3ccccc32)cc1	inactive: 5.25%	–
NC(=S)N=Nc1c(O)n(CCCl)c2ccccc12	–	inconclusive: 3.55 µM [inhibitor, partial curve, poor fit]
CCC(=O)N1CCN(c2cc3c(cc2F)c(=O)c(C(=O)O)cn3CC)CC1	inactive: -1.17%	–
Cc1nn(-c2ccccc2)c(C)c1C(=O)OCC(=O)Nc1ccccc1F	inactive: -1.55%	–
CCN(CC(=O)Nc1c(F)cccc1F)C(=O)CSc1ccccc1	–	inconclusive: 8.91 µM [inhibitor, partial curve, poor fit]

SMILES	activity, negative = active	Potency
Cc1ccc(Cl)cc1NC(=O)C1CCCCC1C(=O)O (stereo not drawn)	–	inconclusive: 35.5 µM [inhibitor, single point]
Cc1ccc(C)c(OCC(=O)Nc2ccc(N3CCOCC3)cc2)c1	–	inconclusive: 0.562 µM [inhibitor, full curve, poor fit]
COC(=O)c1ccc(CSc2cc(C)c3ccccc3n2)o1	inactive: 0.917%	–
CC1=CN2C(=N)/C(=C/c3ccc(Sc4ccc(Cl)cc4)o3)C(=O)N=C2S1	–	inconclusive: 35.5 µM [inhibitor, single point]
CCOc1ccccc1NC(=O)CSc1nc(N)c(C#N)cc1C#N	–	inconclusive: 35.5 µM [inhibitor, single point]
Cc1cc2c(c(SCC(N)=O)n1)C(=O)OC2	inactive: -21.5%	–
COC(=O)c1ccccc1CSc1nsc(/C=C/N(C)C)c1C#N	–	inconclusive: 35.5 µM [inhibitor, single point]
Fc1ccccc1N=C1NN=C(c2ccccc2)CS1	inactive: -3.66%	–
CC(=O)c1sc2nsc(SCCN3CCOCC3)c2c1N	inactive: -12.3%	–
Cc1ccc(S(=O)(=O)N2CCCN(C)c3nc4ccccc4nc32)cc1	–	inconclusive: 35.5 µM [inhibitor, single point]
CCSc1nnc2ccc(-c3ccc(OC)c(OC)c3)nn12	–	inconclusive: 2.82 µM [inhibitor, full curve, poor fit]
COc1ccc(-c2nn(-c3ccccc3)cc2C(=O)NC2CCCCC2C)cc1 (stereo not drawn)	–	inconclusive: 25.1 µM [inhibitor, single point]
c1ccc2nc3c(nc2c1)[nH]c1ccccc13	–	inconclusive: 11.2 µM [inhibitor, partial curve, poor fit]
Cc1nc(NC(=O)c2ccccc2)sc1Cc1ccc2c(c1)OCO2	inactive: -6.36%	–
O=C(c1ccc2ncsc2c1)N1CCN(c2ccccc2Cl)CC1	–	inconclusive: 10 µM [inhibitor, partial curve, poor fit]
Cc1ccc(NC(=O)CCS(=O)(=O)c2ccccc2)cc1S(=O)(=O)N1CCOCC1	–	inconclusive: 3.16 µM [inhibitor, single point]
CNC(=O)C[C@H]1C(=O)N(c2ccccc2)C[C@@H]1Cc1ccccc1	inactive: 8.68%	–
CSc1ncc2c(n1)-c1ccccc1N(Cc1ccc(Cl)cc1)S2(=O)=O	inactive: -2.63%	–
COc1ccc(C(=O)Nc2ccc(S(=O)(=O)NC(C)(C)C)cc2)cc1[N+](=O)[O-]	inactive: -1.93%	–
Cc1ccccc1-c1nc(CN2CCC(C(=O)NCCC3=CCCCC3)CC2)c(C)o1	inactive: -4.2%	–
COC(=O)c1cc2oc3ccccc3c2n1Cc1nc(-c2ccc(OC)cc2)oc1C	inactive: 1.46%	–
O=S(=O)(NCC1CCCO1)c1ccccc1F (stereo not drawn)	–	inconclusive: 6.31 µM [inhibitor, single point]
COc1cc(OC)cc(C(=O)OC/C(O)=C(\C#N)c2nc3ccccc3[nH]2)c1	–	inconclusive: 25.1 µM [inhibitor, single point]
